Patent publication US10752588B2 (The Broad Institute, Inc., priority 2014, dated 2020)
Certain results were filed several times, with different values. This is not the full list of results. The source may hold further records. Results that share an entry appear to be repeats (runs, samples, wells or individuals).

Assay: Pharmacokinetic studies on mice, plasma and brain
Conditions: i.p., 10 mg/kg single dose, male C57BL/6 mice

## COc1cccc(C(NC(=O)C2CCN(CCOc3ccccc3)CC2)c2ccccn2)c1 (single isomer, unassigned)
brain
  AUCINF: 3.03 hr*μmol/L and 1347.55 μg/L*hr
  AUClast: 3.00 hr*μmol/L and 1335.28 μg/L*hr
  Cmax: 1.66 µM and 740.63 μg/L
plasma
  AUCINF: 3.39 hr*μmol/L and 1507.16 μg/L*hr
  AUClast: 3.31 hr*μmol/L and 1470.78 μg/L*hr
  CL: 2.96 mg/(hr*μmol/L)/kg and 6.64 L/hr/kg
  Cmax: 1.59 µM and 709.91 μg/L
  Vss: 6.89 mg/(μmol/L)/kg and 15.48 L/kg
